B1: Probable ATP-dependent RNA helicase DDX27 (protein, UniProt Q96GQ7 1-765, looked up)
Probable ATP-dependent RNA …: MLADLGLIGTIGEDDEVPVEPESDSGDEEEEGPIVLGRRQKALGKNRSADFNPDFVFTEKEGTYDGSWALADVMSQLKKKRAATTLDEKIEKVRKKRKTEDKEAKSGKLEKEKEAKEGSEPKEQEDLQENDEEGSEDEASETDYSSADENILTKADTLKVKDRKKKKKKGQEAGGFFEDASQYDENLSFQDMNLSRPLLKAITAMGFKQPTPIQKACIPVGLLGKDICACAATGTGKTAAFALPVLERLIYKPRQAPVTRVLVLVPTRELGIQVHSVTRQLAQFCNITTCLAVGGLDVKSQEAALRAAPDILIATPGRLIDHLHNCPSFHLSSIEVLILDEADRMLDEYFEEQMKEIIRMCSHHRQTMLFSATMTDEVKDLASVSLKNPVRIFVNSNTDVAPFLRQEFIRIRPNREGDREAIVAALLTRTFTDHVMLFTQTKKQAHRMHILLGLMGLQVGELHGNLSQTQRLEALRRFKDEQIDILVATDVAARGLDIEGVKTVINFTMPNTIKHYVHRVGRTARAGRAGRSVSLVGEDERKMLKEIVKAAKAPVKARILPQDVILKFRDKIEKMEKDVYAVLQLEAEEKEMQQSEAQINTAKRLLEKGKEAVVQEPERSWFQTKEERKKEKIAKALQEFDLALRGKKKRKKFMKDAKKKGEMTAEERSQFEILKAQMFAERLAKRNRRAKRARAMPEEEPVRGPAKKQKQGKKSVFDEELTNTSKKALKQYRAGPSFEERKQLGLPHQRRGGNFKSKSRYKRRK
B2: Probable global transcription activator SNF2L1 (protein, UniProt P28370 1-1042, looked up)
SWI/SNF-related …: MEQDTAAVAATVAAADATATIVVIEDEQPGPSTSQEEGAAAAATEATAATEKGEKKKEKNVSSFQLKLAAKAPKSEKEMDPEYEEKMKADRAKRFEFLLKQTELFAHFIQPSAQKSPTSPLNMKLGRPRIKKDEKQSLISAGDYRHRRTEQEEDEELLSESRKTSNVCIRFEVSPSYVKGGPLRDYQIRGLNWLISLYENGVNGILADEMGLGKTLQTIALLGYLKHYRNIPGPHMVLVPKSTLHNWMNEFKRWVPSLRVICFVGDKDARAAFIRDEMMPGEWDVCVTSYEMVIKEKSVFKKFHWRYLVIDEAHRIKNEKSKLSEIVREFKSTNRLLLTGTPLQNNLHELWALLNFLLPDVFNSADDFDSWFDTKNCLGDQKLVERLHAVLKPFLLRRIKTDVEKSLPPKKEIKIYLGLSKMQREWYTKILMKDIDVLNSSGKMDKMRLLNILMQLRKCCNHPYLFDGAEPGPPYTTDEHIVSNSGKMVVLDKLLAKLKEQGSRVLIFSQMTRLLDILEDYCMWRGYEYCRLDGQTPHEEREEAIEAFNAPNSSKFIFMLSTRAGGLGINLASADVVILYDSDWNPQVDLQAMDRAHRIGQKKPVRVFRLITDNTVEERIVERAEIKLRLDSIVIQQGRLIDQQSNKLAKEEMLQMIRHGATHVFASKESELTDEDITTILERGEKKTAEMNERLQKMGESSLRNFRMDIEQSLYKFEGEDYREKQKLGMVEWIEPPKRERKANYAVDAYFREALRVSEPKIPKAPRPPKQPNVQDFQFFPPRLFELLEKEILYYRKTIGYKVPRNPDIPNPALAQREEQKKIDGAEPLTPEETEEKEKLLTQGFTNWTKRDFNQFIKANEKYGRDDIDNIAREVEGKSPEEVMEYSAVFWERCNELQDIEKIMAQIERGEARIQRRISIKKALDAKIARYKAPFHQLRIQYGTSKGKNYTEEEDRFLICMLHKMGFDRENVYEELRQCVRNAPQFRFDWFIKSRTAMEFQRRCNTLISLIEKENMEIEERERAEKKKRATKTPMVKFSAFS
B3: Calpain-2 catalytic subunit (protein, UniProt P17655 20-700, looked up)
Calpain-2 catalytic subunit: SHDRAIKYLNQDYEALRNECLEAGTLFQDPSFPAIPSALGFKELGPYSSKTRGIEWKRPTEICADPQFIIGGATRTDICQGALGDCWLLAAIASLTLNEEILARVVPLNQSFQENYAGIFHFQFWQYGEWVEVVVDDRLPTKDGELLFVHSAEGSEFWSALLEKAYAKINGCYEALSGGATTEGFEDFTGGIAEWYELKKPPPNLFKIIQKALQKGSLLGCSIDITSAADSEAITFQKLVKGHAYSVTGAEEVESNGSLQKLIRIRNPWGEVEWTGRWNDNCPSWNTIDPEERERLTRRHEDGEFWMSFSDFLRHYSRLEICNLTPDTLTSDTYKKWKLTKMDGNWRRGSTAGGCRNYPNTFWMNPQYLIKLEEEDEDEEDGESGCTFLVGLIQKHRRRQRKMGEDMHTIGFGIYEVPEELSGQTNIHLSKNFFLTNRARERSDTFINLREVLNRFKLPPGEYILVPSTFEPNKDGDFCIRVFSEKKADYQAVDDEIEANLEEFDISEDDIDDGFRRLFAQLAGEDAEISAFELQTILRRVLAKRQDIKSDGFSIETCKIMVDMLDSDGSGKLGLKEFYILWTKIQKYQKIYREIDVDRSGTMNSYEMRKALEEAGFKMPCQLHQVIVARFADDQLIIDFDNFVRCLVRLETLFKIFKQLDPENTGTIELDLISWLCFSVL
B4: Matrin-3 (protein, UniProt P43243 2-847, looked up)
Matrin-3: SKSFQQSSLSRDSQGHGRDLSAAGIGLLAAATQSLSMPASLGRMNQGTARLASLMNLGMSSSLNQQGAHSALSSASTSSHNLQSIFNIGSRGPLPLSSQHRGDADQASNILASFGLSARDLDELSRYPEDKITPENLPQILLQLKRRRTEEGPTLSYGRDGRSATREPPYRVPRDDWEEKRHFRRDSFDDRGPSLNPVLDYDHGSRSQESGYYDRMDYEDDRLRDGERCRDDSFFGETSHNYHKFDSEYERMGRGPGPLQERSLFEKKRGAPPSSNIEDFHGLLPKGYPHLCSICDLPVHSNKEWSQHINGASHSRRCQLLLEIYPEWNPDNDTGHTMGDPFMLQQSTNPAPGILGPPPPSFHLGGPAVGPRGNLGAGNGNLQGPRHMQKGRVETSRVVHIMDFQRGKNLRYQLLQLVEPFGVISNHLILNKINEAFIEMATTEDAQAAVDYYTTTPALVFGKPVRVHLSQKYKRIKKPEGKPDQKFDQKQELGRVIHLSNLPHSGYSDSAVLKLAEPYGKIKNYILMRMKSQAFIEMETREDAMAMVDHCLKKALWFQGRCVKVDLSEKYKKLVLRIPNRGIDLLKKDKSRKRSYSPDGKESPSDKKSKTDGSQKTESSTEGKEQEEKSGEDGEKDTKDDQTEQEPNMLLESEDELLVDEEEAAALLESGSSVGDETDLANLGDVASDGKKEPSDKAVKKDGSASAAAKKKLKKVDKIEELDQENEAALENGIKNEENTEPGAESSENADDPNKDTSENADGQSDENKDDYTIPDEYRIGPYQPNVPVGIDYVIPKTGFYCKLCSLFYTNEEVAKNTHCSSLPHYQKLKKFLNKLAEERRQKKET
B5: Heterogeneous nuclear ribonucleoproteins C1/C2 (protein, UniProt P07910 2-306, looked up)
Heterogeneous nuclear …: ASNVTNKTDPRSMNSRVFIGNLNTLVVKKSDVEAIFSKYGKIVGCSVHKGFAFVQYVNERNARAAVAGEDGRMIAGQVLDINLAAEPKVNRGKAGVKRSAAEMYGSVTEHPSPSPLLSSSFDLDYDFQRDYYDRMYSYPARVPPPPPIARAVVPSKRQRVSGNTSRRGKSGFNSKSGQRGSSKSGKLKGDDLQAIKKELTQIKQKVDSLLENLEKIEKEQSKQAVEMKNDKSEEEQSSSSVKKDETNVKMESEGGADDSAEEGDLLDDDDNEDRGDDQLELIKDDEKEAEEGEDDRDSANGEDDS
B6: SWISS-PROT: P34955 (Bos taurus) Alpha-1-antiproteinase precursor (protein, UniProt P34955 25-416, looked up)
Alpha-1-antiproteinase: GVLQGHAVQETDDTSHQEAACHKIAPNLANFAFSIYHHLAHQSNTSNIFFSPVSIASAFAMLSLGAKGNTHTEILKGLGFNLTELAEAEIHKGFQHLLHTLNQPNHQLQLTTGNGLFINESAKLVDTFLEDVKNLYHSEAFSINFRDAEEAKKKINDYVEKGSHGKIVELVKVLDPNTVFALVNYISFKGKWEKPFEMKHTTERDFHVDEQTTVKVPMMNRLGMFDLHYCDKLASWVLLLDYVGNVTACFILPDLGKLQQLEDKLNNELLAKFLEKKYASSANLHLPKLSISETYDLKSVLGDVGITEVFSDRADLSGITKEQPLKVSKALHKAALTIDEKGTEAVGSTFLEAIPMSLPPDVEFNRPFLCILYDRNTKSPLFVGKVVNPTQA
B7: High mobility group protein HMG-I/HMG-Y (protein, UniProt P17096 2-107, looked up)
High mobility group protein …: SESSSKSSQPLASKQEKDGTEKRGRGRPRKQPPVSPGTALVGSQKEPSEVPTPKRPRGRPKGSKNKGAAKTRKTTTTPGRKPRGRPKKLEKEEEEGISQESSEEEQ

Assay: Composition of amniotic fluid cell-derived ECM by mass spectrometry (total spectra count)
[1] = amniotic fluid cell-derived ECM Matrix A, mass spectrometry, label = protein component
[2] = amniotic fluid cell-derived ECM Matrix B, mass spectrometry, label = protein component
[3] = amniotic fluid cell-derived ECM Matrix C, mass spectrometry, label = protein component
[4] = amniotic fluid cell-derived ECM Matrix D, mass spectrometry, label = protein component
[5] = protein component found by mass spectrometry in amniotic fluid cell-derived ECM Matrix A (Example 1)
[6] = protein component found by mass spectrometry in amniotic fluid cell-derived ECM Matrix B (Example 1)
[7] = protein component found by mass spectrometry in amniotic fluid cell-derived ECM Matrix C (Example 1)
[8] = protein component found by mass spectrometry in amniotic fluid cell-derived ECM Matrix D (Example 1)

Molecule	Total Spectra Count Matrix A [1]	Total Spectra Count Matrix B [2]	Total Spectra Count Matrix C [3]	Total Spectra Count Matrix D [4]	Total Spectra Count Matrix A [5]	Total Spectra Count Matrix B [6]	Total Spectra Count Matrix C [7]	Total Spectra Count Matrix D [8]
B1	0	4	0	0	–	–	–	–
B2	0	6	0	0	–	–	–	–
B3	–	–	–	–	19	4	0	8
B4	–	–	–	–	19	46	5	20
B5	–	–	–	–	18	52	6	22
B6	–	–	–	–	17	66	19	16
B7	–	–	–	–	16	52	7	11

Reference: patent publication US11220671B2, “Methods for the maturation of cardiomyocytes on amniotic fluid cell-derived ECM, cellular constructs, and uses for cardiotoxicity and proarrhythmic screening of drug compounds” (STEMBIOSYS, INC., priority 2019, dated 2022)
